Results are given in words; binding and its absence hold for the method and conditions named. In cells and extracts the contact can be indirect. Some binding calls cover weakened binding; strength is not graded here.
Target: Thrombospondin 1 (human (endogenous in N14042)) (UniProt P07996)
Experiment: co-IP; protein extracted from N14042 cells, magnetic beads with primary antibody (1:20), 4 °C overnight, western blot

Amino acid sequences for entries named in this document (tags omitted). Residues count along the entry.
UniProt P07996, residues 19-1170: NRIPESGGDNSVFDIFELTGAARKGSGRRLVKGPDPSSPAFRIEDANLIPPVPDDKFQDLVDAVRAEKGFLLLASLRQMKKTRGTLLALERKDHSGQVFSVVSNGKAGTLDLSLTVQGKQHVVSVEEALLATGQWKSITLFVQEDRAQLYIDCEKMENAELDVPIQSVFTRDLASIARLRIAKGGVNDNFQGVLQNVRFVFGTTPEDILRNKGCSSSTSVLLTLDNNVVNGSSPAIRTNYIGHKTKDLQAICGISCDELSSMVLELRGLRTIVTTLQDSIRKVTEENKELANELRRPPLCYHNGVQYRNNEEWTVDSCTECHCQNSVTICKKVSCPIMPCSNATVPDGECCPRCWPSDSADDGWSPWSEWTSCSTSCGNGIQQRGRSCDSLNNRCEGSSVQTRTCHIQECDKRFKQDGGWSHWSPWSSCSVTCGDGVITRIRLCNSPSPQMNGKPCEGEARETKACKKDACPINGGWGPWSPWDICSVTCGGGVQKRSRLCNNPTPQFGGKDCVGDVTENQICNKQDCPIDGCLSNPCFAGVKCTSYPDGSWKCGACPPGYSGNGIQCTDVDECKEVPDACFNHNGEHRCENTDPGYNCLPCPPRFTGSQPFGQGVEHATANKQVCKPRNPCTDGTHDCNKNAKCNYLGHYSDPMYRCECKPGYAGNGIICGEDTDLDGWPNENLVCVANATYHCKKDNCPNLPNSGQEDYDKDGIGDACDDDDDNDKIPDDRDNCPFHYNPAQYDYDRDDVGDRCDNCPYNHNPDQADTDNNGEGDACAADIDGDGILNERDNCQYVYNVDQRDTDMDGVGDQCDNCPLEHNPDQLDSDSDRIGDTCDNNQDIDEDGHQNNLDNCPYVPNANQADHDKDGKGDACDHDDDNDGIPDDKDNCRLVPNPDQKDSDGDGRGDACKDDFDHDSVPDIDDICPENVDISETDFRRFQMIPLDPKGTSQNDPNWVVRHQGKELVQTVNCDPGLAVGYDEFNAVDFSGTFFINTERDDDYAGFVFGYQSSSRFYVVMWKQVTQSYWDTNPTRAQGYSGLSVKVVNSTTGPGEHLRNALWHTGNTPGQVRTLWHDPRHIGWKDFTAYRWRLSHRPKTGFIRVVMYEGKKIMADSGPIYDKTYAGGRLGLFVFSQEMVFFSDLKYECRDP
UniProt P35579: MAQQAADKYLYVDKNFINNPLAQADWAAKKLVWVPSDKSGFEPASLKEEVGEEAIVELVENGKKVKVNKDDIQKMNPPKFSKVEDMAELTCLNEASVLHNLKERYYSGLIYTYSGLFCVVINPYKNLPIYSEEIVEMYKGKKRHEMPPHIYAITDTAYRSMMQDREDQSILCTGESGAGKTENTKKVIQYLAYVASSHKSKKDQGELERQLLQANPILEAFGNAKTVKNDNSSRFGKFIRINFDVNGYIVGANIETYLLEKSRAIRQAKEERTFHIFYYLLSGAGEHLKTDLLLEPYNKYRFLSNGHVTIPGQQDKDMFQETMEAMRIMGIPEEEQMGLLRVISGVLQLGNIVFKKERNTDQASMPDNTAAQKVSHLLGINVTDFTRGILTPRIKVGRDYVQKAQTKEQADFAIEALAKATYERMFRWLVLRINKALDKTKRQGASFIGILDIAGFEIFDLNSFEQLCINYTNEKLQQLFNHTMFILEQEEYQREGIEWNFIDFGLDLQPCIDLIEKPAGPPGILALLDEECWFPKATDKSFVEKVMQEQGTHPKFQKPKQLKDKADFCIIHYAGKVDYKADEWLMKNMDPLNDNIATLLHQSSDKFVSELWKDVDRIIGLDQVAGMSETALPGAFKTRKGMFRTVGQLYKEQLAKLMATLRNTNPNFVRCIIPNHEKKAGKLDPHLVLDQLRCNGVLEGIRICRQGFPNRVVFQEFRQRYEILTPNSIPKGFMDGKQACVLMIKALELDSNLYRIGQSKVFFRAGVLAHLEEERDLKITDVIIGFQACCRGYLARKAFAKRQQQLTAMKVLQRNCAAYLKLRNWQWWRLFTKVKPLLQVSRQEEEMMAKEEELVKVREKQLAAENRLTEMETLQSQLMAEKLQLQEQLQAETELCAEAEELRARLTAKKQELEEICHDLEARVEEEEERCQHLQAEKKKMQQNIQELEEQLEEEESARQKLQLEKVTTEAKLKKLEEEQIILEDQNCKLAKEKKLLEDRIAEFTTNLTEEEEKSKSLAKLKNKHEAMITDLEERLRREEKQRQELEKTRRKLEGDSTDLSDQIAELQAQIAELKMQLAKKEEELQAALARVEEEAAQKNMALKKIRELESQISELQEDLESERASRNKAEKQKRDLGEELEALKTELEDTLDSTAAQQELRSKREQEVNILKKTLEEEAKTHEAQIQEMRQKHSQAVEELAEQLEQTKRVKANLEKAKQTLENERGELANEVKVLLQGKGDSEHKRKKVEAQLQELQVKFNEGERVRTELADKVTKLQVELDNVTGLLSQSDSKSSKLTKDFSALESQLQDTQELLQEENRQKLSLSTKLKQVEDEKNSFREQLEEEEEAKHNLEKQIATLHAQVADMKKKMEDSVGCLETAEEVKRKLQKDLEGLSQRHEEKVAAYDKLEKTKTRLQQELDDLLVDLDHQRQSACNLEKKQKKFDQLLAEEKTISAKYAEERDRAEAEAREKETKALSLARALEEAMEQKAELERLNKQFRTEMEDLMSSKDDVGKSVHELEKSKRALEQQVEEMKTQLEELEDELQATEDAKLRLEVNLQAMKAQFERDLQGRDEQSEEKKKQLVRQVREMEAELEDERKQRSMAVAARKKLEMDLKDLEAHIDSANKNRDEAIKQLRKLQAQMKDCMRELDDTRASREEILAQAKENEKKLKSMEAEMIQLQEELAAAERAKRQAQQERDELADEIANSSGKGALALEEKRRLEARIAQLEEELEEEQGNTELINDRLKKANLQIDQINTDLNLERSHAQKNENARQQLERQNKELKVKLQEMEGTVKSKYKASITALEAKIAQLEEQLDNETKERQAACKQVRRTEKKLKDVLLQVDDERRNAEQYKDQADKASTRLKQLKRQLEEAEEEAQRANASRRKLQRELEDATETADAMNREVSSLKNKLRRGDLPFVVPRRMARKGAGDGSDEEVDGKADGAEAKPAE

binding: binds
Substance: Myosin heavy chain 9 (from UniProt P35579 1-1960)
